Reference: patent US9381260B2, “Hypoxia inducible factor-1 pathway inhibitors and uses as anticancer and imaging agents” (EMORY UNIVERSITY, priority 2011, dated 2016)
The name of at least one read-out is uncertain.

Test: Aqueous solubility by HPLC-UV on filtered saturated suspensions
Format: physicochemical
Details: methoxy instead of hydrogen at C-8
Excerpt: Aqueous solubilities of 1, 6a, 6d, and 6g were quantified by HPLC coupled with a UV detector on saturated aqueous suspensions after filtration with a polytetrafluoroethylene (PTFE) filter (pore size 0.2 μm). 6a and 6d were chosen due to their strong activity in the HRE-reporter assay, and 6g was picked to evaluate the influence of the methoxy group attached to the C-8 position of the chromene ring. Aqueous solubilities of 6a, 6d, and 6g are, respectively, 100, 20, and 9000 times better than that of 1, which are consistent with the log Sw predictions for 6a and 6d. The substitution of hydrogen with a methoxy group at the C-8 position of the chromene ring increased the aqueous solubility by 90 times (compare 6a and 6g).

## COc1cc(CN(C(C)C)S(=O)(=O)c2ccccn2)cc2c1OC(C)(C)C=C2 [Compound 6g]
  increase of aqueous solubility relative to 6a: 90 times
